# From PMC12040169 (PLOS Biology, 2025)
# The other results are listed elsewhere or left out.
# Test system: T1, CTL2-GFP (C. trachomatis L2/434/Bu, GFP-expressing)
# T1 construct: L2/434/Bu, GFP-expressing
# Design: species or system HeLa; Intracellular C. trachomatis growth in HeLa cells, bulk GFP fluorescence relative to DMSO
# Settings: bulk GFP, single well; 28.5 h, 10 µM; inhibitor
row,SMILES,% of control remaining [%]
1,CCN(CC)C(=O)Cn1nc(C)n2c(cc3ccsc32)c1=O [CBK284104],100.574
2,CCOC(=O)c1cnn2c(O)cc(CN(Cc3ccco3)C3CC3)nc12 [CBK305613],129.018
3,Cc1cc(CNCc2c(C(C)C)nn(C)c2N(C)C)no1 [CBK304855],96.9415
4,CCCCNCC(=O)Nc1sc2c(c1C(=O)O)CCCC2 [CBK287207],131.183
5,Cc1cc2oc(=O)cc(COC(=O)c3ccc(-n4cccn4)cc3)c2cc1Cl [CBK296626],121.86
6,CCN1CCN(C(=O)CN(Cc2ccccc2)S(=O)(=O)c2c(C)cc(C)cc2C)CC1 [CBK266670],106.822
7,CSCCN1CCC(Oc2nccnc2OC2CCCCC2)CC1 [CBK082873T],113.902
8,COc1ccc(S(=O)(=O)N(C)CC(=O)Nc2cccc(C(F)(F)F)c2)cc1OC [CBK266242],172.03
9,COc1ccccc1-c1nnc(SCC(=O)O)n1-c1ccccc1 [CBK116149],131.484
10,C=C(C)Cn1c(SCC(C)C)nnc1-c1ccc(F)cc1 [CBK200085],156.775
11,CNC(=O)C1(C)CCCN1C(=O)c1cc2cc(C)ccc2n1C (stereo not drawn) [CBK281375],145.068
12,O=C(c1cc2c(s1)CCC2)N1CCC[C@H]1[C@H](O)c1nccs1 [CBK284287],101.679
13,O=C1Nc2ccc(-c3ccsc3)cc2C1(O)O [CBK000421],130.364
14,CCNC(=O)N1C(CC(=O)Nc2cccc(OC)c2)C(=O)NC2CCCCC21 (stereo not drawn) [CBK269848],135.674
15,CCn1cc(-c2cncn2CCN(C)C2CCCC2)cn1 [CBK281551],124.533
16,CCOC(=O)CN1CCN(S(=O)(=O)c2ccc3ccccc3c2)CC1 [CBK043738],109.038
17,NC1=C(c2nc3ccccc3s2)C(=O)CN1CCN1CCOCC1 [CBK265946],100
18,O=C(O)c1cccc(NC(=S)NC(=O)c2cccnc2)c1 [CBK265739],131.572
19,CCOC(=O)N1CCCC(=O)c2c(C(=O)O)cn(C)c21 [CBK005301],127.403
20,COC(=O)c1c(C)[nH]c(C(=O)CSc2ncnc3scc(-c4ccccc4)c23)c1C [CBK265918],119.51
21,Cc1nn(-c2ccccc2)c(CN2C(=O)NC3(CCCC3)C2=O)c1C#N [CBK305572],143.293
22,O=C1NC(=O)C(CCCCN2CCC3(CCN(C(=O)c4cc(F)c(F)cc4F)C3)C2)N1 (stereo not drawn) [CBK132147],129.9
23,Cc1ccc(S(=O)(=O)Nc2nc3ccc(S(=O)(=O)N4CCOCC4)cc3s2)cc1 [CBK266988],161.216
24,CCOc1ccc(-c2ccnc(NCC(C)(C)CO)n2)cc1C(=O)O [CBK307530],129.999
25,O=C(N[C@H]1CO[C@H]2[C@@H]1OC[C@@H]2n1nnnc1-c1ccccc1)c1ccccc1 [CBK289482],103.596
26,COc1ccc(O)c(C(=O)c2cnn(-c3ccc(Cl)c(C(=O)O)c3)c2)c1 [CBK297914],122.208

# An excerpt from above in order of length of the SMILES, smallest number first.
row,SMILES,% of control remaining [%]
13,O=C1Nc2ccc(-c3ccsc3)cc2C1(O)O [CBK000421],130.364
7,CSCCN1CCC(Oc2nccnc2OC2CCCCC2)CC1 [CBK082873T],113.902
4,CCCCNCC(=O)Nc1sc2c(c1C(=O)O)CCCC2 [CBK287207],131.183
3,Cc1cc(CNCc2c(C(C)C)nn(C)c2N(C)C)no1 [CBK304855],96.9415
18,O=C(O)c1cccc(NC(=S)NC(=O)c2cccnc2)c1 [CBK265739],131.572
19,CCOC(=O)N1CCCC(=O)c2c(C(=O)O)cn(C)c21 [CBK005301],127.403
17,NC1=C(c2nc3ccccc3s2)C(=O)CN1CCN1CCOCC1 [CBK265946],100
11,CNC(=O)C1(C)CCCN1C(=O)c1cc2cc(C)ccc2n1C (stereo not drawn) [CBK281375],145.068
24,CCOc1ccc(-c2ccnc(NCC(C)(C)CO)n2)cc1C(=O)O [CBK307530],129.999
16,CCOC(=O)CN1CCN(S(=O)(=O)c2ccc3ccccc3c2)CC1 [CBK043738],109.038
2,CCOC(=O)c1cnn2c(O)cc(CN(Cc3ccco3)C3CC3)nc12 [CBK305613],129.018
21,Cc1nn(-c2ccccc2)c(CN2C(=O)NC3(CCCC3)C2=O)c1C#N [CBK305572],143.293
23,Cc1ccc(S(=O)(=O)Nc2nc3ccc(S(=O)(=O)N4CCOCC4)cc3s2)cc1 [CBK266988],161.216
6,CCN1CCN(C(=O)CN(Cc2ccccc2)S(=O)(=O)c2c(C)cc(C)cc2C)CC1 [CBK266670],106.822
22,O=C1NC(=O)C(CCCCN2CCC3(CCN(C(=O)c4cc(F)c(F)cc4F)C3)C2)N1 (stereo not drawn) [CBK132147],129.9

# Following part:

row,SMILES,% of control remaining [%]
1,CN1C(=O)CC2(C1=O)C(=O)N(Cc1ccccc1)c1ccc(F)cc12 (stereo not drawn) [CBK075163],96.5288
2,CS(=O)(=O)Nc1cc(-c2noc([C@@H]3CCCN3Cc3ccncc3)n2)ccn1 [CBK288886],121.215
3,O=C(Nc1ccccc1)c1cc2sccc2s1 [CBK057696],59.9338
4,CCCc1cc(=O)oc2cc(OCC(=O)OC(C)C)c(Cl)cc12 [CBK264459],133.322
5,COc1ccc(-c2nc(NC(=O)CSc3nnc(C)s3)ns2)cc1 [CBK267290],137.512
6,CCN(c1ccc(NC(=O)Cn2nc(C(=O)O)c3ccccc3c2=O)cc1)C(C)C [CBK297734],142.904
7,CCCC/C=C/c1cnc(N)c(-c2ccc(N3CCOCC3)cc2)n1 [CBK063891],98.551
8,CC(C)(C)c1ccc(C(=O)NNC(=O)C(=O)Nc2ccccc2)cc1 [CBK261701],118.545
9,Cc1c(C(=O)O)sc(S(=O)(=O)N2CCN(C(=O)CCC3CCCC3)CC2)c1C(=O)O [CBK297121],126.205
10,CCn1cc(Br)c(C(=O)Nc2nccs2)n1 [CBK265890],109.985
11,CCOC(=O)N1CCC(NS(=O)(=O)c2cn(C)c(=O)n(C)c2=O)CC1 [CBK305699],114.227
12,O=C(C1CCC1)N1CCC(n2nc(C3CC3)ccc2=O)CC1 [CBK284239],107.715
13,C[C@H](NC(=O)N1CCN(C(=O)CCc2c[nH]c3ccccc23)CC1)C(=O)O [CBK286774],106.385
14,O=C(NC1CCCC1)c1ccccc1Cl [CBK001992],121.33
15,NS(=O)(=O)c1ccc(CNC(=O)c2ccccc2Nc2cccc(C(F)(F)F)c2)cc1 [CBK149579],116.459
16,N#Cc1nccnc1NCc1ccccc1CN1CCCC1CO (stereo not drawn) [CBK306418],88.8225
17,CCN(CC)CCn1c(=N)n(CC(=O)OC)c2ccccc21 [CBK262517B],100
18,O=C(O)Cn1c2ccccc2c2cc([N+](=O)[O-])ccc21 [CBK261732],100
19,CCCn1nccc1S(=O)(=O)NCCN1CCCCC1CO (stereo not drawn) [CBK307259],116.998
20,NS(=O)(=O)c1cccc(NC(=O)c2cccnc2)c1 [CBK024417],100
21,CC1=CC(C)C(CN(CCC[N+](C)(C)C)C(=O)Nc2ccccc2)C(C)C1 (stereo not drawn) [CBK262507I],100
22,COc1ccc(C(=O)Nc2ccccc2Nc2cc(-c3ccccc3)nn2-c2ccccc2)cc1 [CBK261296],53.9377
23,COc1cc(-c2ccc3ccc(=O)[nH]c3n2)cc(OC)c1OC [CBK073721],149.281
24,CC(C)C(NC(=O)c1cccc(-n2cnnc2)c1)c1cccs1 (stereo not drawn) [CBK282442],105.464
25,CCCCNCCOC1CCC[C@@H]1Cl (stereo partly drawn) [CBK009839],174.271
